Laboratory results taken from patent US20140128472A1, “TREATMENT AND PREVENTION OF DISEASES RELATED TO OXIDATIVE STRESS” (UNIVERSITY OF PÉCS, priority 2011, published 2014).
Entries after “also recorded” stand apart in the source; their conditions may differ.

Legend:
[1] = Tyrosine content of the vascular wall after oral tyrosine isomer supplementation of rats (HPLC); assay type: in vivo, Sprague-Dawley rats; conditions: 4th week; 1.76 mg/die per os; relative to Phe levels
[2] = system: mouse endothelial cells (ECs) from endothelioma; assay: Incorporation of tyrosine isoforms into cellular proteins of mouse endothelioma cells (HPLC); assay type: cell-based; conditions: 7 days

Compound	Vascular o-Tyr level compared to control group [1]	o-Tyr content of cellular proteins compared to p-Tyr or control ECs ([2]; 400 μmol/l o- and 400 μmol/l p-Tyr)	Relative m-Tyr content of cellular proteins compared to p-Tyr supplemented or control cells ([2]; 400 μmol/l m- and 400 μmol/l p-Tyr)
N[C@@H](Cc1ccc(O)cc1)C(=O)O [p-Tyr, Para-L-tyrosine]	did not alter o-Tyr levels	–	–
N[C@@H](Cc1ccccc1O)C(=O)O [o-Tyr, Ortho-L-tyrosine]	significantly higher o-Tyr level; also recorded: significantly increased the o-Tyr content	higher o-Tyr content	–
N[C@@H](Cc1cccc(O)c1)C(=O)O [m-Tyr, Meta-L-tyrosine]	–	–	higher relative content of m-Tyr
